Source: the supplement of paper PMC12067093, “Discovery and optimisation of a covalent ligand for TRIM25 and its application to targeted protein ubiquitination” (Chemical Science, 2025)
The other results are listed elsewhere or left out.

Chains of the proteins cited; added tags and fusions are not shown. Lines headed by an entry give the natural chain unless they say otherwise; changes in a name come on top.
UniProt O75909: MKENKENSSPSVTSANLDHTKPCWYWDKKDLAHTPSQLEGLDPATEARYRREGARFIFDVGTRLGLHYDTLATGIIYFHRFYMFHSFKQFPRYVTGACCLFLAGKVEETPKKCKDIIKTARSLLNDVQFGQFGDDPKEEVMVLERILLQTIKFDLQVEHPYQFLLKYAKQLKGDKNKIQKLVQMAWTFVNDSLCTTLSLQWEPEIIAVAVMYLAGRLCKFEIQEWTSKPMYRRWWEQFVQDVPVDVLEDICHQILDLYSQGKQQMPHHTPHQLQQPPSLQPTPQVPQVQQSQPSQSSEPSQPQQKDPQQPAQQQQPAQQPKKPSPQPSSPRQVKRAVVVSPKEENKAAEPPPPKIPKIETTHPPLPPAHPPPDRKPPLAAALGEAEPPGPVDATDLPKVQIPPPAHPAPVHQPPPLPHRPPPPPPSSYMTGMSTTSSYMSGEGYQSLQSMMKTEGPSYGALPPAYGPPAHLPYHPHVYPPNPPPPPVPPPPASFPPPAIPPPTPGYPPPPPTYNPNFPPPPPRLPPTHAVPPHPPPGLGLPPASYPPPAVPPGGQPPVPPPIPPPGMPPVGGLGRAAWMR
UniProt P17655: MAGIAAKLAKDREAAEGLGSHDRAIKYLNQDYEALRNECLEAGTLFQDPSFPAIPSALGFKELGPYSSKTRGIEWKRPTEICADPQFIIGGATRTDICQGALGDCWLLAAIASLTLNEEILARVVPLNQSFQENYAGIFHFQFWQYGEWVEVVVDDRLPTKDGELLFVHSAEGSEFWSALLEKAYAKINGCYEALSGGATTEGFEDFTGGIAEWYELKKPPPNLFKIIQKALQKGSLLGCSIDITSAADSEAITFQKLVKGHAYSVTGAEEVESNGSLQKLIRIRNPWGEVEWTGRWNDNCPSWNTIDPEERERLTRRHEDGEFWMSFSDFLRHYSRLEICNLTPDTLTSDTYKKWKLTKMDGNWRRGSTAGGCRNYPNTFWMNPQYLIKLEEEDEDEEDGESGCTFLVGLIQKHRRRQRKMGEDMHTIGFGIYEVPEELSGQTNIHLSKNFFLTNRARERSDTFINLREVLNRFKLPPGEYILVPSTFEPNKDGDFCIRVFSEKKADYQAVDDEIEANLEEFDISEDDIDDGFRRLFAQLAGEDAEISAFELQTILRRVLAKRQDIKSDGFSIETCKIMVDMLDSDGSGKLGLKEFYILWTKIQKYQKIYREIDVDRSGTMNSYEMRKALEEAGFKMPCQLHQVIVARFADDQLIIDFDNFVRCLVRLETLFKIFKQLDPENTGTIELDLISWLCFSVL
UniProt P49662: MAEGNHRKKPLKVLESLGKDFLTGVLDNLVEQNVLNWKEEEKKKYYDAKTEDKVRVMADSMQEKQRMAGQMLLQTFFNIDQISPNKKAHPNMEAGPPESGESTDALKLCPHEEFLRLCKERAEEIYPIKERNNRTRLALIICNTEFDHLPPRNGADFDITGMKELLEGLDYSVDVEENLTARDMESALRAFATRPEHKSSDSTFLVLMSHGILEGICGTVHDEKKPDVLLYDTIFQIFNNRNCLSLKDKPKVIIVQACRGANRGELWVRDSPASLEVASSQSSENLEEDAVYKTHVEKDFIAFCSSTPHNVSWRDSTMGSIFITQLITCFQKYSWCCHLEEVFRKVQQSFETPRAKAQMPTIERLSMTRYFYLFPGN
UniProt O43303: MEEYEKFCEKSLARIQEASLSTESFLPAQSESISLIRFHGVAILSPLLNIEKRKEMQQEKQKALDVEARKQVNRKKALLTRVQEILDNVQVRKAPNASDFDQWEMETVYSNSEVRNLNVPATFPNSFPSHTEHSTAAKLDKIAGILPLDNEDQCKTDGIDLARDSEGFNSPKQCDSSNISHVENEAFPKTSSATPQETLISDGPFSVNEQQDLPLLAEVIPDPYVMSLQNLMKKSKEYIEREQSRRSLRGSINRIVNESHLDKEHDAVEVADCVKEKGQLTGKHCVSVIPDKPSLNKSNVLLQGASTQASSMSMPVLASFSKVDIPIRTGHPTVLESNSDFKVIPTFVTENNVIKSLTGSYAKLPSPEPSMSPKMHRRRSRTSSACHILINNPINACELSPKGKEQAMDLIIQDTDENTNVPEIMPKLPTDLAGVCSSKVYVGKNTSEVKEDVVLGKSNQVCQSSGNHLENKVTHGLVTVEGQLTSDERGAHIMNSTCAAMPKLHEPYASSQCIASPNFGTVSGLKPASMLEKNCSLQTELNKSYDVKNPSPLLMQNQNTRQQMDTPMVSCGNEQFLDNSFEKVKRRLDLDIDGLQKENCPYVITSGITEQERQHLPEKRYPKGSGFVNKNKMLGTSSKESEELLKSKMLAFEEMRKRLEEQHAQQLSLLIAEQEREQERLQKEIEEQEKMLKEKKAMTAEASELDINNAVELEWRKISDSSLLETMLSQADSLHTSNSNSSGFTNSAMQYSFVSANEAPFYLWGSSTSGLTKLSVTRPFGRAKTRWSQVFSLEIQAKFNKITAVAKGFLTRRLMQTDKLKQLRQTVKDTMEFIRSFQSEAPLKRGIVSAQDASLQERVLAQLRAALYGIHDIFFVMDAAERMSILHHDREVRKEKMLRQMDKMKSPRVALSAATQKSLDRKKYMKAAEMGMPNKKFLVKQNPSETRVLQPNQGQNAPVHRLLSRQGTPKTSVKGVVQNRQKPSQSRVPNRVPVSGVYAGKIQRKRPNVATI
UniProt Q14790: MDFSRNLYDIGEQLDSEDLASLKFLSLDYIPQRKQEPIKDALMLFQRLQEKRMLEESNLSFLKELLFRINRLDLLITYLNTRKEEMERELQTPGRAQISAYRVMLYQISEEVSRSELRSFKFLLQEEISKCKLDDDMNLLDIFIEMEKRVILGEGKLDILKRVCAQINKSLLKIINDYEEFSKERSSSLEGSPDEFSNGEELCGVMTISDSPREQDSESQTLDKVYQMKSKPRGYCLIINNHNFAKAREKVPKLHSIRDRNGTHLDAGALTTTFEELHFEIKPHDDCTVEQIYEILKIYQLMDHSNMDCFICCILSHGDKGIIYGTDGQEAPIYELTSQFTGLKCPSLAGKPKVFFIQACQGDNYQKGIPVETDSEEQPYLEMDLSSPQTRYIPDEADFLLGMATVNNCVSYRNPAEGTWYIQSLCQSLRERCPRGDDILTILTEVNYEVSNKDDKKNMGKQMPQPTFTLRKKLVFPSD
UniProt P07384: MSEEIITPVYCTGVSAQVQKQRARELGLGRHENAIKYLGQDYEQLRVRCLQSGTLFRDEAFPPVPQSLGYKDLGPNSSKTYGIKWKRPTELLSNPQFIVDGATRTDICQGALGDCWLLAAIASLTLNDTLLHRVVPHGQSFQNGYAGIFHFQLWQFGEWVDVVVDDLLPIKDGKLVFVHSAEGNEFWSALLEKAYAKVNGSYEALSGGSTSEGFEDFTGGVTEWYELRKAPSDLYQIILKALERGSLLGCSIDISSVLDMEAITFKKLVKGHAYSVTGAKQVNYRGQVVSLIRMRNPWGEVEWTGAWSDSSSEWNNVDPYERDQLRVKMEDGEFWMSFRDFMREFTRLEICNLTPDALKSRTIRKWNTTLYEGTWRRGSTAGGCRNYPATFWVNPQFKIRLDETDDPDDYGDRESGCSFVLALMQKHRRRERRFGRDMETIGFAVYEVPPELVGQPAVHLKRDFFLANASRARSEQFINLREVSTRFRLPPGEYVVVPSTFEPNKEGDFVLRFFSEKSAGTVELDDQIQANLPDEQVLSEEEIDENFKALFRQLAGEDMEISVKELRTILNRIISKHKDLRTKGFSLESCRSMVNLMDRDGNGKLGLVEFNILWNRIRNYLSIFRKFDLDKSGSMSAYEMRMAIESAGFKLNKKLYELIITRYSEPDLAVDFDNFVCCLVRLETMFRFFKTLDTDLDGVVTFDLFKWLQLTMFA
UniProt P50991: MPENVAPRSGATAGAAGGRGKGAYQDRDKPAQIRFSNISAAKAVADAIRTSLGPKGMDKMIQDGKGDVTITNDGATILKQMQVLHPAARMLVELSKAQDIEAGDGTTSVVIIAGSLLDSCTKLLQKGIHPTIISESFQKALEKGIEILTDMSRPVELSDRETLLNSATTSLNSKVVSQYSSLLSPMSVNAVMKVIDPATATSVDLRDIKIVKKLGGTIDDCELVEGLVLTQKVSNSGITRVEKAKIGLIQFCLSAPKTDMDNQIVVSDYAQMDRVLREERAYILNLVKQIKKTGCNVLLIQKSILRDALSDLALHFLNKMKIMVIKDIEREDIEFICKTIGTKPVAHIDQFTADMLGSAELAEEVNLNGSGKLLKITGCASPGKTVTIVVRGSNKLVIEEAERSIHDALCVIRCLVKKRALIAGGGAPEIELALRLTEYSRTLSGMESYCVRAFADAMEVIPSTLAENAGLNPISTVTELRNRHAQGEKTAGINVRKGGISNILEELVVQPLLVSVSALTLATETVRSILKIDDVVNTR
UniProt Q86X55: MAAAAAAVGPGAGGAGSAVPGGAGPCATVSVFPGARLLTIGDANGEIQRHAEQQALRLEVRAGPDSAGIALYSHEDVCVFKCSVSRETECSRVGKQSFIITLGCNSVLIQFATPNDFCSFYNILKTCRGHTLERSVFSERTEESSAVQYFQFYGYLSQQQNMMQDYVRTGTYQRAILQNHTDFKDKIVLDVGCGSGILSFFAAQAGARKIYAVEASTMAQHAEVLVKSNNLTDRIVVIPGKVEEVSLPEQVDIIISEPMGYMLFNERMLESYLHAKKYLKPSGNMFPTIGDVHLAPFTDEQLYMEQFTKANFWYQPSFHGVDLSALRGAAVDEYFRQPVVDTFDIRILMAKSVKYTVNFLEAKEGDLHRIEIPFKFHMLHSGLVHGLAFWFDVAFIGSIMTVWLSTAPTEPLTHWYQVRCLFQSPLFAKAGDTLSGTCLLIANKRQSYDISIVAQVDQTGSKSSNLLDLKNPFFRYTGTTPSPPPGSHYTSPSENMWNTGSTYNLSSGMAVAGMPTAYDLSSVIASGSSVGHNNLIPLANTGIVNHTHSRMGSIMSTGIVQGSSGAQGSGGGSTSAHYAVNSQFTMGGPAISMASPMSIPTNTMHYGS
UniProt Q01518, whole entry, looked up: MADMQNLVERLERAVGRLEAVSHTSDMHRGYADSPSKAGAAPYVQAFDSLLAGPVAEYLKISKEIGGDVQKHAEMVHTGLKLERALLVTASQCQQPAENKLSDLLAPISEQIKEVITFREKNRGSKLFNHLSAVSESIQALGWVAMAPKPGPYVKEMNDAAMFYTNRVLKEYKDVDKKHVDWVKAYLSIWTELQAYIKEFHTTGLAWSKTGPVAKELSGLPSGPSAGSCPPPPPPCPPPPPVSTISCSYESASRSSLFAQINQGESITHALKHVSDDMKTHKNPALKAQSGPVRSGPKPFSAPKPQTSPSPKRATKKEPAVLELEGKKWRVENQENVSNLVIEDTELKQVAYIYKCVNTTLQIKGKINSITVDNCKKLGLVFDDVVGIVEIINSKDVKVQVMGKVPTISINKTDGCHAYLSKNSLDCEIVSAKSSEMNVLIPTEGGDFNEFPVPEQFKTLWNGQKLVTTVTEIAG
UniProt Q6P1N0: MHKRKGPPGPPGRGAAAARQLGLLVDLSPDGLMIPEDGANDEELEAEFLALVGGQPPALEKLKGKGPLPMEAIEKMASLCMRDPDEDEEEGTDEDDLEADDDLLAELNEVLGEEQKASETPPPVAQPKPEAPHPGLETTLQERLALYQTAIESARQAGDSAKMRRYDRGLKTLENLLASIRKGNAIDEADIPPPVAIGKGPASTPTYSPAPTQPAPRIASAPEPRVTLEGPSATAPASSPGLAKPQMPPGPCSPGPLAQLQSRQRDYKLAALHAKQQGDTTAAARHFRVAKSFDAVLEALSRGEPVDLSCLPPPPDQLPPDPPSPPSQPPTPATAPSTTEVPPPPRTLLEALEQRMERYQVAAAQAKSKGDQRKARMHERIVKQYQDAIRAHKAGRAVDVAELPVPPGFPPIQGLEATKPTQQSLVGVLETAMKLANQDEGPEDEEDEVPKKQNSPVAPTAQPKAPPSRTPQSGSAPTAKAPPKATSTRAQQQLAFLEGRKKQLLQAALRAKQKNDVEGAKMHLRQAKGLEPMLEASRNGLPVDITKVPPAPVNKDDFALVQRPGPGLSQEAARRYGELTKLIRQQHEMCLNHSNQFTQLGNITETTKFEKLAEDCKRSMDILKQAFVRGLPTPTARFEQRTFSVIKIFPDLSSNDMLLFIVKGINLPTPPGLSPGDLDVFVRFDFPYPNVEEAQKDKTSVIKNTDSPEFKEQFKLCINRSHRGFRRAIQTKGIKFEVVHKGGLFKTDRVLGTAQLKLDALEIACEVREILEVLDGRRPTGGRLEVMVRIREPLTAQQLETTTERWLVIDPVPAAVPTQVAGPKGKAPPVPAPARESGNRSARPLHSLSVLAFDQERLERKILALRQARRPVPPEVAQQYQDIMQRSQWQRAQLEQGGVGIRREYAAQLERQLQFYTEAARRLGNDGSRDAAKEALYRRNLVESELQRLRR
UniProt P13501: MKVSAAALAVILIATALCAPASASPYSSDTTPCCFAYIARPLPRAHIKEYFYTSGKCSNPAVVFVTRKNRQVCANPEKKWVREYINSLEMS

Compound: Cc1cc(ccc1-c1ccccc1)C(=O)N1CCCN(CC1)C(=O)CCl [compound 10]
Experiment: probe-labelled cysteine peptide fold change vs DMSO (competition) (log2 fold change); higher = less target engagement (more negative = stronger competition)
Conditions: THP-1, incubation time: 4 h
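Note: competitive profiling in live THP-1 cells: cysteine peptides tagged with an iodoacetamide desthiobiotin (IA-DTB) probe, intensity after compound treatment relative to DMSO-treated cells.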

Target	probe-labelled cysteine peptide fold change (10 µM)	probe-labelled cysteine peptide fold change (50 µM)
CCT3_P49368_475_HTQENCETWGVNGETGTLVDMK (UniProt P49368)	-0.135	0.0527
CCNK_O75909_99_YVTGACCLFLAGK (UniProt O75909)	0.172	0.0589
CARD19_Q96LW7_77_DCQEFYR (UniProt Q96LW7)	0.0851	0.107
CAPN2_P17655_405_LEEEDEDEEDGESGCTFLVGLIQK (UniProt P17655)	-0.0227	-0.0774
CASP1_P29466_285_VIIIQACR (UniProt P29466)	-0.0493	-0.265
CAPN2_P17655_82_RPTEICADPQFIIGGATR (UniProt P17655)	-0.162	-0.203
CASP8AP2_Q9UKL3_174_SPHLDDCSK (UniProt Q9UKL3)	-0.153	-0.0612
CASP4_P49662_109_LCPHEEFLR (UniProt P49662)	0.0345	-0.0365
CASP3_P42574_184_GTELDCGIETDSGVDDDMACHK (UniProt P42574)	0.00328	-0.508
CCP110_O43303_174_QCDSSNISHVENEAFPK (UniProt O43303)	-0.0397	-0.114
CBFA2T3_O75081_405_HLNNLLNCIMDMVEK (UniProt O75081)	-0.0172	0.0849
CCDC88B_A6NC98_1382_AQSSLCLRDETLAGGQR (UniProt A6NC98)	-0.453	-0.675
CASP7_P55210_139_ASEEDHTNAACFACILLSHGEENVIYGK (UniProt P55210)	0.0589	0.387
CASP8_Q14790_236_GYCLIINNHNFAK (UniProt Q14790)	-0.0568	-0.12
CAPN1_P07384_677_YSEPDLAVDFDNFVCCLVR (UniProt P07384)	0.308	0.345
CCT4_P50991_379_ITGCASPGK (UniProt P50991)	-0.0252	-0.0456
CARM1_Q86X55_193_IVLDVGCGSGILSFFAAQAGAR (UniProt Q86X55)	0.395	0.172
CCNL2_Q96S94_190_ELGFCVHVK (UniProt Q96S94)	-0.0835	0.482
CCNY_Q8ND76_39_EDTGCNLQHISDRENIDDLNMEFNPSDHPR (UniProt Q8ND76)	-0.177	0.00973
CAP1_Q01518_427_NSLDCEIVSAK (UniProt Q01518)	-0.184	0.00381
CASP8_Q14790_309+313_IYQLMDHSNMDCFICCILSHGDK (UniProt Q14790)	0.152	-0.000519
CC2D1A_Q6P1N0_590_QQHEMCLNHSNQFTQLGNITETTK (UniProt Q6P1N0)	-0.115	0.152
CCL5_P13501_73_QVCANPEK (UniProt P13501)	-0.704	-0.729

Single records, as listed above. Values in the order: probe-labelled cysteine peptide fold change (10 µM)	probe-labelled cysteine peptide fold change (50 µM)
CCNY_Q8ND76_39_EDTGCNLQHISDRENIDDLNMEFNPSDHPR (UniProt Q8ND76) in the list: -0.177	0.00973
CAPN1_P07384_677_YSEPDLAVDFDNFVCCLVR (UniProt P07384) in the list: 0.308	0.345
